From paper PMC10799014 come the findings set out here.

Amino acid sequences for entries named in this document (tags omitted). A change or cut given only in a name is not applied to a line headed by its entry.
UniProt P18206: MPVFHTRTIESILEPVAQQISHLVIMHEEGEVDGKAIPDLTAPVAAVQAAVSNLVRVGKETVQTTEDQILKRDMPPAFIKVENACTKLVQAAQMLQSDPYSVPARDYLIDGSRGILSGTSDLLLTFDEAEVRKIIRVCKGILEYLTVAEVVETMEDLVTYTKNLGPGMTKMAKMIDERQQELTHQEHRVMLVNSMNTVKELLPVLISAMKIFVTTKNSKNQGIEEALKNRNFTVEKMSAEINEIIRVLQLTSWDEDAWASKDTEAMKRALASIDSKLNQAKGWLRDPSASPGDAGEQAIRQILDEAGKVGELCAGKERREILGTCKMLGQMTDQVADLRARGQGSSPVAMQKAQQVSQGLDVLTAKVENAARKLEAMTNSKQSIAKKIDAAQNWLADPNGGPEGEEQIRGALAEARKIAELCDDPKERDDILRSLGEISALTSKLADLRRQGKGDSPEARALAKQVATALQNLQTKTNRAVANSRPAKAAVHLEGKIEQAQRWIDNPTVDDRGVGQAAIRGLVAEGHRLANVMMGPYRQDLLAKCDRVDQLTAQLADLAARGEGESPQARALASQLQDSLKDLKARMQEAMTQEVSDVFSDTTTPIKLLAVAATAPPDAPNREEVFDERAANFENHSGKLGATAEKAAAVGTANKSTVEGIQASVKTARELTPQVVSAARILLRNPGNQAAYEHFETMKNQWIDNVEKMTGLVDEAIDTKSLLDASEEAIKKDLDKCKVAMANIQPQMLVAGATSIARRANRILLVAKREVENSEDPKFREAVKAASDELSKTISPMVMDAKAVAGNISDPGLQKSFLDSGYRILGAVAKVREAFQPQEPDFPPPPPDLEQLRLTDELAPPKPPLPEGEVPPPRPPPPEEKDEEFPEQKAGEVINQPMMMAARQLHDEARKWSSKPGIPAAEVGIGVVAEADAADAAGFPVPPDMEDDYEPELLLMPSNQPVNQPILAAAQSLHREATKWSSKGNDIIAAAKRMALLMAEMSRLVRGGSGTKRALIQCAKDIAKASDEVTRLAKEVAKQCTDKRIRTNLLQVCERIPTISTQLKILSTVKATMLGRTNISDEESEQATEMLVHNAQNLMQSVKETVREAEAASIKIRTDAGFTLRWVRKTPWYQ

No constants are given. Whether binding was seen depends on the method and setting. Binding seen in cells or lysates may run through a third protein. Tags and fused reporters may be left off the sequences shown.

This test deals with vinculin, Venus-fragment fusion for BiFC (UniProt P18206). Nature of the test: split reporter; BiFC with Venus fragments V1 and V2 in HeLa cells, 200 ng of each plasmid, fixed after 24 h, confocal microscopy with uniform laser settings.

B1: rapsyn, Venus-fragment fusion for BiFC (protein, UniProt Q13702 1-412)
chain: MGQDQTKQQIEKGLQLYQSNQTEKALQVWTKVLEKSSDLMGRFRVLGCLVTAHSEMGRYKEMLKFAVVQIDTARELEDADFLLESYLNLARSNEKLCEFHKTISYCKTCLGLPGTRAGAQLGGQVSLSMGNAFLGLSVFQKALESFEKALRYAHNNDDAMLECRVCCSLGSFYAQVKDYEKALFFPCKAAELVNNYGKGWSLKYRAMSQYHMAVAYRLLGRLGSAMECCEESMKIALQHGDRPLQALCLLCFADIHRSRGDLETAFPRYDSAMSIMTEIGNRLGQVQALLGVAKCWVARKALDKALDAIERAQDLAEEVGNKLSQLKLHCLSESIYRSKGLQRELRAHVVRFHECVEETELYCGLCGESIGEKNSRLQALPCSHIFHLRCLQNNGTRSCPNCRRSSMKPGFV
As for B1, the binding result is reported as “no binding”.
